# In PubChem BioAssay AID328 (DTP/NCI, 2004):
# The list does not hold the whole screen: it gathers tests that were run many times, whatever their T/C, doses with no T/C, and many T/C values between a quarter and a half above the control. Further doses and runs are listed elsewhere. T/C: endpoint of the treated group in % of that of the vehicle group. Some doses have a count of surviving animals in place of a T/C: the source holds a T/C of zero for them, seemingly a mark for toxic or unscored doses. Some survivor counts are full or nearly so, which does not show that the dose was tolerated: the source hardly ever lists a survival T/C far under the control, and the zero likely stands for such cases as well. Counts of survivors are from the toxicity check (mostly the fifth day) where no day follows; animals may have died later. Schedule codes are those of the source, taken here to give the interval after Q, in days (D) or hours (H), and the number of doses after X. Some structures stand for samples that the source files as different forms (salt, stereo form or complex); doses refer to the form tested. Some entries were tested several times; the results are listed from low to high. For survival time, the PubChem record calls one and a half times the control and up active, and a quarter to a half above the control has no call in these data; cut-offs in other NCI protocols can differ. Some T/C values carry the count of animals alive at the toxicity check (mostly the fifth day); where none is given, no animal had died by that day. Marks such as (2×) stand for listed records that agree.
# Test system: BDF1 mice, P388 leukemia ip, median survival T/C
# Assay: NCI In Vivo Anticancer Drug Screen. Data for tumor model P388 Leukemia (intraperitoneal) in B6D2F1 (BDF1) mice
# Settings: T/C endpoint: median survival time, higher T/C = longer survival
# Outline: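 Each value expresses how treatment altered survival: treated-mouse outcome over vehicle-mouse outcome, both groups bearing the transplanted tumour.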
# [1] = dose: 40.0 mg/kg/injection, schedule: Q01DX009 (ip), vehicle: water
smiles,measurement,setting,value
COc1cc2c[n+](C)c3c4cc5c(cc4ccc3c2cc1OC)OCO5,T/C,"dose: 40.0 mg/kg/injection, schedule: Q01DX009 (ip), vehicle: Klucel (hydroxypropylcellulose) (HPC), evaluated on day 35",137 % of control
same,survivor count,"dose: 40.0 mg/kg/injection, schedule: Q01DX009 (ip), vehicle: Klucel (hydroxypropylcellulose) (HPC)",6 of 6
same,T/C,"dose: 40.0 mg/kg/injection, schedule: Q01DX009 (ip), vehicle: saline","150, 171, 172, 200 % of control"
same,T/C,[1],90 and 178 % of control [5 of 6 alive]
same,survivor count,[1],"2 of 6, 5 of 6, 7 of 8, 6 of 6"
same,T/C,"dose: 40.0 mg/kg/injection, schedule: Q04DX003 (ip), vehicle: saline",145 % of control
same,T/C,"dose: 50.0 mg/kg/injection, schedule: Q01DX001 (ip), vehicle: Klucel (hydroxypropylcellulose) (HPC)","93 [2 of 3 alive], 99, 125, 140, 143, 148, 150, 151, 153 (2×), 158, 159 (2×), 160, 161, 162, 166, 166 [5 of 6 alive], 168, 169, 171 (2×), 174, 175, 176, 178, 181, 183 (2×), 188 % of control"
same,survivor count,"dose: 50.0 mg/kg/injection, schedule: Q01DX009 (ip), vehicle: water",7 of 8
same,T/C,"dose: 60.0 mg/kg/injection, schedule: Q04DX002 (ip), vehicle: Klucel (hydroxypropylcellulose) (HPC), evaluated on day 30","124 (2×), 125, 126, 128, 129, 144, 149, 154, 160, 161, 162, 166, 168 (2×), 169, 170, 173, 182, 182 [5 of 6 alive], 184, 185, 186, 205, 207 (2×), 208, 216 % of control"
same,T/C,"dose: 60.0 mg/kg/injection, schedule: Q04DX002 (ip), vehicle: Klucel (hydroxypropylcellulose) (HPC), evaluated on day 35",152 % of control
same,survivor count,"dose: 60.0 mg/kg/injection, schedule: Q04DX002 (ip), vehicle: Klucel (hydroxypropylcellulose) (HPC)",3 of 3
same,T/C,"dose: 60.0 mg/kg/injection, schedule: Q04DX003 (ip), vehicle: Klucel (hydroxypropylcellulose) (HPC), evaluated on day 30","104, 111, 129, 138, 150, 152, 153 (2×), 155, 156, 162, 168, 169, 177 (2×), 178, 180, 183, 185 (2×), 187, 190 (3×), 191, 200 (2×), 214, 218, 238, 260 % of control"
same,T/C,"dose: 60.0 mg/kg/injection, schedule: Q04DX003 (ip), vehicle: Klucel (hydroxypropylcellulose) (HPC), evaluated on day 35",205 % of control
same,T/C,"dose: 80.0 mg/kg/injection, schedule: Q01DX005 (ip), vehicle: Klucel (hydroxypropylcellulose) (HPC), evaluated on day 30","90, 91 (2×), 92, 95 [5 of 6 alive], 102 (2×), 107 (2×), 117, 120, 122, 123, 125, 128, 131, 133, 136, 143, 149, 159, 175, 183, 186, 217 % of control"
same,T/C,"dose: 80.0 mg/kg/injection, schedule: Q01DX005 (ip), vehicle: Klucel (hydroxypropylcellulose) (HPC), evaluated on day 35",88 % of control
same,survivor count,"dose: 80.0 mg/kg/injection, schedule: Q01DX005 (ip), vehicle: Klucel (hydroxypropylcellulose) (HPC)","2 of 3, 3 of 3, 6 of 6"
same,T/C,"dose: 80.0 mg/kg/injection, schedule: Q01DX009 (ip), vehicle: Klucel (hydroxypropylcellulose) (HPC), evaluated on day 30","86, 87, 89, 91, 97 (2×), 98 (2×), 104, 107, 109, 110, 114, 119, 137, 138, 139, 170, 188 % of control"
same,T/C,"dose: 80.0 mg/kg/injection, schedule: Q01DX009 (ip), vehicle: Klucel (hydroxypropylcellulose) (HPC), evaluated on day 35",92 % of control
same,survivor count,"dose: 80.0 mg/kg/injection, schedule: Q01DX009 (ip), vehicle: Klucel (hydroxypropylcellulose) (HPC)","3 of 6, 2 of 3, 4 of 6, 3 of 3, 6 of 6"
same,T/C,"dose: 80.0 mg/kg/injection, schedule: Q01DX009 (ip), vehicle: saline",136 % of control
same,survivor count,"dose: 80.0 mg/kg/injection, schedule: Q01DX009 (ip), vehicle: water",4 of 8
same,T/C,"dose: 100.0 mg/kg/injection, schedule: Q01DX001 (ip), vehicle: Klucel (hydroxypropylcellulose) (HPC)","108, 110, 112, 120, 137, 143 [2 of 3 alive], 144, 151, 152, 157, 162, 165, 169, 171, 172, 174, 180 (2×), 181, 182, 186, 187, 188 (2×), 190, 191, 195, 199, 203, 225 % of control"
same,T/C,"dose: 100.0 mg/kg/injection, schedule: Q04DX002 (ip), vehicle: Klucel (hydroxypropylcellulose) (HPC)","118, 141, 146, 155 % of control"
same,survivor count,"dose: 120.0 mg/kg/injection, schedule: Q01DX009 (ip), vehicle: saline",6 of 6
same,T/C,"dose: 120.0 mg/kg/injection, schedule: Q04DX002 (ip), vehicle: Klucel (hydroxypropylcellulose) (HPC), evaluated on day 30","116, 122, 124, 125 (2×), 126, 138, 139, 143, 153, 158, 163, 172 (2×), 176, 178, 179, 181, 185, 189, 194, 195, 200, 239, 240, 252, 258, 261 % of control"
same,T/C,"dose: 120.0 mg/kg/injection, schedule: Q04DX002 (ip), vehicle: Klucel (hydroxypropylcellulose) (HPC), evaluated on day 35",173 % of control
same,survivor count,"dose: 120.0 mg/kg/injection, schedule: Q04DX002 (ip), vehicle: Klucel (hydroxypropylcellulose) (HPC)",3 of 3
same,T/C,"dose: 120.0 mg/kg/injection, schedule: Q04DX003 (ip), vehicle: Klucel (hydroxypropylcellulose) (HPC), evaluated on day 30","125, 127, 129, 131, 132, 140, 145 (2×), 146, 147, 149, 159, 163 (2×), 169, 170, 171 (2×), 172 (2×), 175, 182, 186, 187 (2×), 189, 203, 204, 217, 230, 256 % of control"
same,T/C,"dose: 120.0 mg/kg/injection, schedule: Q04DX003 (ip), vehicle: Klucel (hydroxypropylcellulose) (HPC), evaluated on day 35",272 % of control
same,T/C,"dose: 120.0 mg/kg/injection, schedule: Q04DX003 (ip), vehicle: Klucel (hydroxypropylcellulose) (HPC), evaluated on day 60",178 % of control
same,T/C,"dose: 167.0 mg/kg/injection, schedule: Q04DX003 (ip), vehicle: other",139 % of control
same,T/C,"dose: 200.0 mg/kg/injection, schedule: Q01DX001 (ip), vehicle: Klucel (hydroxypropylcellulose) (HPC)","113, 131, 135, 137, 140 [5 of 6 alive], 142, 146, 150, 155 (2×), 157, 161, 166, 170, 172, 177, 182, 186, 187 (2×), 196, 198, 200, 202, 205, 213, 221, 230, 245, 263 % of control"
same,T/C,"dose: 200.0 mg/kg/injection, schedule: Q04DX002 (ip), vehicle: Klucel (hydroxypropylcellulose) (HPC)","137, 150, 153, 190 % of control"
same,survivor count,"dose: 240.0 mg/kg/injection, schedule: Q01DX009 (ip), vehicle: saline",2 of 6 and 3 of 6
same,T/C,"dose: 240.0 mg/kg/injection, schedule: Q04DX002 (ip), vehicle: Klucel (hydroxypropylcellulose) (HPC), evaluated on day 30","93, 98, 99, 102, 105, 117, 122, 124 [5 of 6 alive], 126 (2×), 129, 131, 137 (2×), 138, 139, 140, 145 (3×), 150, 157, 159, 172, 184, 193, 211 % of control"
same,T/C,"dose: 240.0 mg/kg/injection, schedule: Q04DX002 (ip), vehicle: Klucel (hydroxypropylcellulose) (HPC), evaluated on day 35",162 % of control
same,survivor count,"dose: 240.0 mg/kg/injection, schedule: Q04DX002 (ip), vehicle: Klucel (hydroxypropylcellulose) (HPC)",3 of 6 and 3 of 3
same,T/C,"dose: 240.0 mg/kg/injection, schedule: Q04DX003 (ip), vehicle: Klucel (hydroxypropylcellulose) (HPC), evaluated on day 30","93, 94, 96, 104, 108, 118, 119, 123, 125, 126, 128, 131, 136 (2×), 139, 142, 143 (2×), 145 (2×), 147, 154, 158 [5 of 6 alive], 159, 162, 166, 169, 186, 189, 198, 211 % of control"
same,T/C,"dose: 240.0 mg/kg/injection, schedule: Q04DX003 (ip), vehicle: Klucel (hydroxypropylcellulose) (HPC), evaluated on day 35",144 % of control
same,survivor count,"dose: 320.0 mg/kg/injection, schedule: Q04DX003 (ip), vehicle: other",8 of 8
same,T/C,"dose: 400.0 mg/kg/injection, schedule: Q01DX001 (ip), vehicle: Klucel (hydroxypropylcellulose) (HPC)","88, 98, 100, 106 [5 of 6 alive], 110, 121, 125, 126, 127, 133 (2×), 135, 137 [2 of 3 alive], 138, 143, 146 [5 of 6 alive], 151, 154, 155, 158, 161, 168, 170, 190, 194, 208, 210, 216, 217, 224 % of control"
same,T/C,"dose: 400.0 mg/kg/injection, schedule: Q04DX002 (ip), vehicle: Klucel (hydroxypropylcellulose) (HPC)","96, 128, 136, 175 % of control"
same,T/C,"dose: 800.0 mg/kg/injection, schedule: Q04DX002 (ip), vehicle: Klucel (hydroxypropylcellulose) (HPC)",136 % of control
